The values that follow come from patent US20250303359A1, “COMPOUNDS AND METHODS FOR SAFE MITIGATION OF OCEAN ACIDIFICATION AND CAPTURE OF ATMOSPHERIC CARBON DIOXIDE” (Negative Emissions Materials, Inc., priority 2022, published 2025).

With `[Mg+2].[OH-].[OH-]` [Mg(OH)2, magnesium hydroxide], the “CO2 consumption (or alkalinity increase) per mol of Mg(OH)2 added” value (1-6 days, 1-3 L, deep local seawater, 400 ppm pCO2, 22 °C) is recorded as “approximately 1.5 mol”. Moreover, where the note is “concentrations within ecosystem safety limits”, the “time by which full CO2 uptake effect occurred” value is ≤ 6 days.
